Data reported in the supplement of paper PMC10849652.
Some of the results follow.

Protein sequences, listed by entry. Tags and fused reporters are not part of them. Lines headed by an entry give the natural chain unless they say otherwise; changes in a name come on top.
UniProt P36956: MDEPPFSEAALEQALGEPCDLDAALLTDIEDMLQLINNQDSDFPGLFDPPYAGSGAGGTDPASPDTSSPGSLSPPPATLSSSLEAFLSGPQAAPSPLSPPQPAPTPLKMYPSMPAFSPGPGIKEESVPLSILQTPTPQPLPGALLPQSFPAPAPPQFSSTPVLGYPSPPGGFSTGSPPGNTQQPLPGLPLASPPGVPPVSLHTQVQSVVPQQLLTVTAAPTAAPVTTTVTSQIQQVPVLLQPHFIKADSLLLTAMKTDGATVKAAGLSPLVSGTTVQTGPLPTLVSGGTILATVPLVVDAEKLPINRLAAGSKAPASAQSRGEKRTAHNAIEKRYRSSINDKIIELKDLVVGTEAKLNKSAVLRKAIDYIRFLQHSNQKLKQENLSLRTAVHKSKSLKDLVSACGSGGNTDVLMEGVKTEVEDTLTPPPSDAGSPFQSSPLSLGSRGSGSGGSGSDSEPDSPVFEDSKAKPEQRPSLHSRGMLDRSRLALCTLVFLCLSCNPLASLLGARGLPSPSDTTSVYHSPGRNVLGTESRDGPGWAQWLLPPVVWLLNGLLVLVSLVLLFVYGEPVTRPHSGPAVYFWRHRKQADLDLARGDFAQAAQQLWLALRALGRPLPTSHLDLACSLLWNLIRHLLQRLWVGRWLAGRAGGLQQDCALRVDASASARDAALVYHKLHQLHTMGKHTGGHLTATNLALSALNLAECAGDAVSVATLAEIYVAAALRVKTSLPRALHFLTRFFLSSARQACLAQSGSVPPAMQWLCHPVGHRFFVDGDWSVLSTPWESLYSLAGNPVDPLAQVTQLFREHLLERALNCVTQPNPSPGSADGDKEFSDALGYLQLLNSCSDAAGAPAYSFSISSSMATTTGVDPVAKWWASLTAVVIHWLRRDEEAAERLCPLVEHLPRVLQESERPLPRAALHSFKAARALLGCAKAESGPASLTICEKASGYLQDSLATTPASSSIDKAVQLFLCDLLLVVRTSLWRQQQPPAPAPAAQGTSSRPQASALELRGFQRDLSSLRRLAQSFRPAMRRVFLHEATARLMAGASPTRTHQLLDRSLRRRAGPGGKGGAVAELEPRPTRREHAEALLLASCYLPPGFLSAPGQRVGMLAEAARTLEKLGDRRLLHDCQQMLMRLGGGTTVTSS
UniProt O95793: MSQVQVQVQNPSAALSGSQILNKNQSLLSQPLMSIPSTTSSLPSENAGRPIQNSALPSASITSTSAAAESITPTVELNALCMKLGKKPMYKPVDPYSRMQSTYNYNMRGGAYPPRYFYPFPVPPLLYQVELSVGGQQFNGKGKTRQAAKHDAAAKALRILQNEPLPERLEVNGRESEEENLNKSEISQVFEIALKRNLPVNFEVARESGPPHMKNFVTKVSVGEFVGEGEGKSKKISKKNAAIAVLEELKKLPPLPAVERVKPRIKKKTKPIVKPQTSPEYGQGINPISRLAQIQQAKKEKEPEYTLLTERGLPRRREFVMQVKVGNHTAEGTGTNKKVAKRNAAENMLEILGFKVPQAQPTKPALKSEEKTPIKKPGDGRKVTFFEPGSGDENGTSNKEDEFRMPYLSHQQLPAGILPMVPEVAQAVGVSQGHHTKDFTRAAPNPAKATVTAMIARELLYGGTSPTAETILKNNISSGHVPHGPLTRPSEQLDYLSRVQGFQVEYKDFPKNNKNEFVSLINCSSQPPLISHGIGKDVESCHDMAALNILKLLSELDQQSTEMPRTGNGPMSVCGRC
UniProt Q01082, whole entry, looked up: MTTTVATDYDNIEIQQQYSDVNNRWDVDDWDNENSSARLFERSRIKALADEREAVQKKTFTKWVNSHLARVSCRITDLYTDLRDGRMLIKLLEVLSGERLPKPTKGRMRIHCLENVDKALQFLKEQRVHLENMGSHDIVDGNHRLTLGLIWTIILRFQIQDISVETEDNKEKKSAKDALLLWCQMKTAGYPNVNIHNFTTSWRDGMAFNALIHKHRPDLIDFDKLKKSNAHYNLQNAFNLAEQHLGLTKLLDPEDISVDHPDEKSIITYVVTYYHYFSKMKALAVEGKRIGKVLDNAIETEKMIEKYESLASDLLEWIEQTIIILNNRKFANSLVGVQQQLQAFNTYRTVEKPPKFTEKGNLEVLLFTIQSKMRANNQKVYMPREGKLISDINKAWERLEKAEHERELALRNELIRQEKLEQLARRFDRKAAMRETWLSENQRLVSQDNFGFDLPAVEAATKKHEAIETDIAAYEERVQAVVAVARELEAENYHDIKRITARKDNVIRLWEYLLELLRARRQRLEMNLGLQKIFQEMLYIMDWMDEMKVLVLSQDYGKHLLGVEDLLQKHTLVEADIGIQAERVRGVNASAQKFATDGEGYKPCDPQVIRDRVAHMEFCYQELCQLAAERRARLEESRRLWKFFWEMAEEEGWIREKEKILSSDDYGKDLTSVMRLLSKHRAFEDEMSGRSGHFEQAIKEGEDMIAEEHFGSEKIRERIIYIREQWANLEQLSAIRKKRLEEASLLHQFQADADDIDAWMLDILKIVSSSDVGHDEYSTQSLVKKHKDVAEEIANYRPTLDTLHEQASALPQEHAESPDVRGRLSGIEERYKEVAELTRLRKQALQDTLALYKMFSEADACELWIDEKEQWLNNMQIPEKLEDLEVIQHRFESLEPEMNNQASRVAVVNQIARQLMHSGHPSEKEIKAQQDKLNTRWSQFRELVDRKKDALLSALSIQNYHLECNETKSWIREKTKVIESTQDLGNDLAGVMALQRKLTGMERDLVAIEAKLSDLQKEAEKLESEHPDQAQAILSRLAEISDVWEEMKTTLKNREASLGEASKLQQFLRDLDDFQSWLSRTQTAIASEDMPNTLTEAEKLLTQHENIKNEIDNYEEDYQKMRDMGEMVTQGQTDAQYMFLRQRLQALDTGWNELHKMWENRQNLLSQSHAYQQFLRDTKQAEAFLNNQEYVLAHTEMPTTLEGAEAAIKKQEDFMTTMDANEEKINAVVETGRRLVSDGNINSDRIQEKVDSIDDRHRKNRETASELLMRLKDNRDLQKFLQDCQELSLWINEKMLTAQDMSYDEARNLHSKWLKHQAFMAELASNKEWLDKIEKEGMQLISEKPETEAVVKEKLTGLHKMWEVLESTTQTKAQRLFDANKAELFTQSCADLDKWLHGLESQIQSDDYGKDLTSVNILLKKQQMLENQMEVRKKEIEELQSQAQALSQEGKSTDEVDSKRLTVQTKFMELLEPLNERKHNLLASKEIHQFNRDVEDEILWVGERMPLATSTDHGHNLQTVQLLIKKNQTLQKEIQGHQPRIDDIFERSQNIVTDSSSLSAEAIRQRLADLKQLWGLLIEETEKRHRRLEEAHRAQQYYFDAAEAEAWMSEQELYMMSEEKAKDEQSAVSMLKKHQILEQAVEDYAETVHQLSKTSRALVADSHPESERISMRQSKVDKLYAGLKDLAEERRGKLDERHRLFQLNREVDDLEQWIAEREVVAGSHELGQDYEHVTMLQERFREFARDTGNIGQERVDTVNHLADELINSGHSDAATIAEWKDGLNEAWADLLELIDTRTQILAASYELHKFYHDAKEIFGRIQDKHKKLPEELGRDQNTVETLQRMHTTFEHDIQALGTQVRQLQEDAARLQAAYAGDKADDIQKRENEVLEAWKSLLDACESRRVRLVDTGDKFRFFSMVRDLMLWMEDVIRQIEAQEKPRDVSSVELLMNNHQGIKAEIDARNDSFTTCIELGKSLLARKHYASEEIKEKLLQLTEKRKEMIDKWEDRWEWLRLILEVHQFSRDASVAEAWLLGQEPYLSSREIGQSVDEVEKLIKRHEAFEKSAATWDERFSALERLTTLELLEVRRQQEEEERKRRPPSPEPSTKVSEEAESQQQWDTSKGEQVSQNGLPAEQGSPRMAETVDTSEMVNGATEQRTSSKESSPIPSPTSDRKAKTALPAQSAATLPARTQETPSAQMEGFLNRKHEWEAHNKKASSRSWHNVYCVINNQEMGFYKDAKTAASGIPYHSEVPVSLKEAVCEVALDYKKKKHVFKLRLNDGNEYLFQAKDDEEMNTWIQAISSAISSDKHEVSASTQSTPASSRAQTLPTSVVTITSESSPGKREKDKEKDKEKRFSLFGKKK
UniProt Q11201: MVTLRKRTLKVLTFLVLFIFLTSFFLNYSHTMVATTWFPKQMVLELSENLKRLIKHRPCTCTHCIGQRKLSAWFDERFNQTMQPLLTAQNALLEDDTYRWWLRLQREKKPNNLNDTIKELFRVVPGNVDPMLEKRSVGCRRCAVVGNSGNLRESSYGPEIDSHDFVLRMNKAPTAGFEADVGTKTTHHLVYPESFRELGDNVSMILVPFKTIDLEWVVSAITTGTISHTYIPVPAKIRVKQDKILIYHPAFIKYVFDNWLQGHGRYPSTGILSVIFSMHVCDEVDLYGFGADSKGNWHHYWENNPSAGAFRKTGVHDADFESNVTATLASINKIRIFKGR
UniProt Q8N9Q2: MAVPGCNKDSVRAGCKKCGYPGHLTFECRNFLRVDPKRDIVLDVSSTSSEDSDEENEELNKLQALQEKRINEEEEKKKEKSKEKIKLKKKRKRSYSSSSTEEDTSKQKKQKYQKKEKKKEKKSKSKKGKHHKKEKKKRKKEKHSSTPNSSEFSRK
UniProt Q9Y2D8: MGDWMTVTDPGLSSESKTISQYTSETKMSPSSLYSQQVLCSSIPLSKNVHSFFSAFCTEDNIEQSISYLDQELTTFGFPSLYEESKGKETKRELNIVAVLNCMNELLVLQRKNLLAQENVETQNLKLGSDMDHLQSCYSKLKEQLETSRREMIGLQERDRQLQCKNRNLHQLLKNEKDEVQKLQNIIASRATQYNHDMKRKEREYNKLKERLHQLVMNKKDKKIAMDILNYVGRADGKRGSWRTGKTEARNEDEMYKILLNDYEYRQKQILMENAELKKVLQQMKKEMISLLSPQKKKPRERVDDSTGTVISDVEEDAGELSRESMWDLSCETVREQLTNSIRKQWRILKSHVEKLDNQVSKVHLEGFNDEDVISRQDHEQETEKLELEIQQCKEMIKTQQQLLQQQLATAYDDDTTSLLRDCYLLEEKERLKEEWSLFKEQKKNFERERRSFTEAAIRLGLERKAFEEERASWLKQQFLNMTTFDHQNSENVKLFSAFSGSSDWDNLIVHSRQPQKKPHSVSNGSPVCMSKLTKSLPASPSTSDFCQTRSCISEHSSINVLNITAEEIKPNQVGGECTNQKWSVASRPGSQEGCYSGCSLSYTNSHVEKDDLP
UniProt Q96DR4, whole entry, looked up: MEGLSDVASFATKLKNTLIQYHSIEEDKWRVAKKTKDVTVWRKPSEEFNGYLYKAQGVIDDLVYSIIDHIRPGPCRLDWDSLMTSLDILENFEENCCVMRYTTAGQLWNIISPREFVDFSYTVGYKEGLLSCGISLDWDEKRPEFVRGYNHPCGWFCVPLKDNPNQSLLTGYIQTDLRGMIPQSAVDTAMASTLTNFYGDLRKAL
UniProt O43597: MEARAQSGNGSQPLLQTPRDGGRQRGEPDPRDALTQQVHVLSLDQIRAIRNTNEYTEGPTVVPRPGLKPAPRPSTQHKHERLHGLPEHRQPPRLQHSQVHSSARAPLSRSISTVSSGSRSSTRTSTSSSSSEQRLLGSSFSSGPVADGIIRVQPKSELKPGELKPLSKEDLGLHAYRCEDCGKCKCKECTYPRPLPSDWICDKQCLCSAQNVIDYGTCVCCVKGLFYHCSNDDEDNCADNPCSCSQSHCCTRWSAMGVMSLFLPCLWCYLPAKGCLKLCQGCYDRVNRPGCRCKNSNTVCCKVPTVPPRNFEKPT
UniProt Q9UH36: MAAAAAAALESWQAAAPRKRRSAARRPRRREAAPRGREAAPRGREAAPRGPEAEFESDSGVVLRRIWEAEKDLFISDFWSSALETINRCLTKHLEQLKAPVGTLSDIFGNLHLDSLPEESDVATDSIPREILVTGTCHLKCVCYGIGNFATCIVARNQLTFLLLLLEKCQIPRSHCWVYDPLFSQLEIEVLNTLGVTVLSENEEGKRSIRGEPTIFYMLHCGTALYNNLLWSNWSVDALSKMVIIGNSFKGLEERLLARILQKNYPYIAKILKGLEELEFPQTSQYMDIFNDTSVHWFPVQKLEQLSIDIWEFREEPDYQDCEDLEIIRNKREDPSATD
UniProt O43278: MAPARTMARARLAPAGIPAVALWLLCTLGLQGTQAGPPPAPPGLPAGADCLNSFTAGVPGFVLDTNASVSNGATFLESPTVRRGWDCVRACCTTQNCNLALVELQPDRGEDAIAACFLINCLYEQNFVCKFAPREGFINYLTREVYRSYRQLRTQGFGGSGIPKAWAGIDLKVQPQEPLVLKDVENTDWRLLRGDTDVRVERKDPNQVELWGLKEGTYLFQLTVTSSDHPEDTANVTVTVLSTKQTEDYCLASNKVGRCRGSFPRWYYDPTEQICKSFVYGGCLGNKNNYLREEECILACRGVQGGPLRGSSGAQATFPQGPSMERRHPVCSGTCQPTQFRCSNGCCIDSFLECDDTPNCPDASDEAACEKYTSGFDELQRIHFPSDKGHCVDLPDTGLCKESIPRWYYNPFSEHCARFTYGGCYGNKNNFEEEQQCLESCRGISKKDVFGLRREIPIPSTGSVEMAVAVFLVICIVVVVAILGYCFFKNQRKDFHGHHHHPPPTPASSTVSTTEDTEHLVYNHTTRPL

Key:
Assay in all cases: log2 fold change, soluble protein after heating vs DMSO (PISA); higher = thermal stabilisation; K562 lysate, 10 uM; active = over 0.2 and 3.5 SD of the protein, either way, in both replicates (recomputed)
[1] = compound: C/C(=N\NC(=O)C1=CC(=CC=C1)S(=O)(=O)N2CCOCC2)/C3=C(C=CC(=C3)Cl)O
Outline: (§1)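 Pellets of K562 cells were dounce-homogenised in PBS pH 7.4 with 1 mM MgCl2, and the crude extract was held at 1 mg/mL protein for a 30 min treatment with 10 μM compound. Aliquots were heated for 3 min over 48°C-58°C and pooled before NP-40 was added to 0.5% at 4°C. The supernatant from 21,000xg for 90 min was quantified by TMTpro 16plex LC-MS/MS with channel sums equalised. Values are reported from duplicates as log-two fold change in thermal stability relative to solvent controls.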

[2] = compound: C1=CC2=C(C=CC(=C2)/C=C\3/C(=O)NC(=NCC4=CC=CS4)S3)N=C1
Outline: as §1

[3] = compound: C1=CC2=NC=CN=C2C=C1/C=C/3\C(=O)NC(=O)S3
Outline: as §1

[4] = compound: C1=CC=C(C=C1)C2=NC(=C(N2)C3=CC=NC=C3)C4=CC(=C(C=C4)Cl)O
Outline: as §1

[5] = compound: C1=CC=C2C(=C1)C3=NNC4=CC=CC(=C43)C2=O
Outline: as §1

[6] = compound: C1CCN(C1)C(=O)NC2=CC=CC(=C2)NC3=NC=C(C(=N3)NCCC4=CN=CN4)Br
Outline: as §1

[7] = compound: C1CN(CCC1(CC2=CC=C(C=C2)Cl)N)C3=NC=NC4=C3C=CN4
Outline: as §1

IRAK-1-4 Inhibitor I = compound: C1COCCN1CCN2C3=CC=CC=C3N=C2NC(=O)C4=CC(=CC=C4)[N+](=O)[O-] [IRAK-1-4 Inhibitor I]
Outline: as §1

ibrutinib = compound: C=CC(=O)N1CCC[C@@H](n2nc(-c3ccc(Oc4ccccc4)cc3)c3c(N)ncnc32)C1 [ibrutinib]
Outline: as §1

[8] = compound: CC(=O)c1cnc2ccc(-c3cc(Cl)c(O)c(Cl)c3)nc2c1N[C@H]1CC[C@H](CN(C)C)CC1
Outline: as §1

ralimetinib = compound: CC(C)(C)Cn1c(N)nc2ccc(-c3[nH]c(C(C)(C)C)nc3-c3ccc(F)cc3)nc21 [ralimetinib]
Outline: as §1

[9] = compound: CC(C)(O)CC(=O)NCCn1ccc2ncnc(Nc3ccc(Oc4cccc(C(F)(F)F)c4)c(Cl)c3)c21
Outline: as §1

[10] = compound: CC1=C(C(CC(=O)N1)C2=CC=C(C=C2)C(F)(F)F)C(=O)NC3=C(C=C4C(=C3)C=NN4)F
Outline: as §1

[11] = compound: CC1=C(C2=C(C=C1)C(=O)C3=CC=CC=C3N2CCCN)C
Outline: as §1

[12] = compound: CC1=C(C=C(C=C1)NC(=O)C2=CC(=CC=C2)C(C)(C)C#N)NC3=CC4=C(C=C3)N=CN(C4=O)C
Outline: as §1

[13] = compound: CC1=C(C=C(C=C1)NC(=O)C2=CC(=CC=C2)N(C)C)NC(=O)C3=CC=C(C=C3)O
Outline: as §1

[14] = compound: CC1=CC=C(C=C1)SC2=C3C=C(SC3=CN=C2)C(=O)N
Outline: as §1

erlotinib = compound: C#Cc1cccc(Nc2ncnc3cc(OCCOC)c(OCCOC)cc23)c1 [erlotinib]
Outline: as §1

[15] = compound: C1=CC(=CC=C1C2=NC3=C(N2)C=C(C=C3)C(=O)N)OC4=CC=C(C=C4)Cl
Outline: as §1

[16] = compound: CC(C)C1=C2N=C(C=C(N2N=C1)NCC3=CC=CC=C3)NCCCCCCN
Outline: as §1

Measured: log2 fold change

STEAP3 isoform 2 (UniProt Q658P3)
inactive: [1] 0.002 | [2] 0.049 | [3] -0.098 | [4] 0.048 | [5] -0.051 | [6] -0.067 | [7] 0.081 | IRAK-1-4 Inhibitor I 0.027 | ibrutinib 0.011 | [8] 0.049 | ralimetinib -0.001 | [9] -0.121 | [10] -0.006 | [11] 0.002 | [12] -0.034 | [13] -0.013 | [14] -0.04

SRGAP2, A0A075B7B5
inactive: [12] 0.029

SREBF1 isoform 4 (UniProt P36956)
inactive: erlotinib 0.04 | [15] 0.128 | [4] -0.059 | IRAK-1-4 Inhibitor I -0.015 | [8] -0.099 | ralimetinib -0.025 | [9] -0.121 | [16] -0.076 | [11] -0.099 | [12] 0.058 | [13] 0.103 | [14] 0.112

STAU1 isoform 3 (UniProt O95793)
inactive: erlotinib -0.006 | [15] -0.016 | [3] -0.103 | ibrutinib -0.094 | [16] 0.028 | [10] 0.012 | [12] -0.064

SPTBN1 isoform 3 (UniProt Q01082)
inactive: erlotinib 0.021 | [15] -0.049 | [4] -0.037 | [6] 0.138 | [7] -0.144 | IRAK-1-4 Inhibitor I -0.047 | [8] -0.248 | ralimetinib 0.056 | [9] -0.023 | [16] 0.13 | [10] 0.021 | [11] -0.101 | [12] 0.024 | [13] 0.103 | [14] -0.095

ST3GAL1 (UniProt Q11201)
inactive: [11] -0.244 | [12] -0.076

SPTAN1 isoform 3 (UniProt Q13813)
inactive: [1] 0.094 | [2] 0.107 | [3] -0.11 | [5] 0.037 | [6] 0.059 | [7] 0.022 | ibrutinib -0.005 | [12] 0.138

SREK1IP1 (UniProt Q8N9Q2)
inactive: erlotinib 0.005 | [15] 0.031 | [4] 0.014 | [6] 0.021 | [7] 0.068 | IRAK-1-4 Inhibitor I -0.04 | [8] 0.01 | ralimetinib 0.005 | [9] -0.032 | [16] -0.075 | [10] 0.016 | [12] -0.044 | [13] 0.023 | [14] 0.051

STAB1 (UniProt Q9NY15)
inactive: erlotinib 0.002 | [15] 0 | [4] 0.037 | IRAK-1-4 Inhibitor I 0.057 | [8] 0.215 | ralimetinib -0.072 | [9] -0.184 | [16] 0.058 | [12] 0.203 | [13] -0.13 | [14] -0.064

SSX2IP (UniProt Q9Y2D8)
inactive: [1] -0.07 | [2] -0.035 | [4] -0.109 | [5] 0.079 | [6] -0.056 | [7] 0.02 | IRAK-1-4 Inhibitor I 0.05 | ralimetinib -0.028 | [9] -0.071 | [10] 0.068 | [13] 0.048

STARD4 (UniProt Q96DR4)
inactive: [6] 0.044 | [7] 0.016

SQOR (UniProt Q9Y6N5)
inactive: erlotinib -0.014 | [15] -0.208 | [4] -0.036 | [6] -0.065 | [7] 0.075 | IRAK-1-4 Inhibitor I -0.017 | [8] -0.147 | ralimetinib 0.021 | [9] 0.018 | [16] 0.082 | [11] 0.017 | [12] -0.021 | [13] 0.058 | [14] 0.01

SPRY2 (UniProt O43597)
inactive: erlotinib 0.012 | [15] 0.077 | [16] -0.084

STAG2 (UniProt Q8N3U4)
inactive: erlotinib 0.082 | [15] -0.184 | [4] 0.09 | [6] 0.023 | [7] 0.124 | IRAK-1-4 Inhibitor I 0.037 | [8] -0.02 | ralimetinib 0.016 | [9] -0.116 | [16] 0.042 | [12] 0.021 | [13] -0.064 | [14] 0.002

SS18L1 (UniProt O75177)
inactive: erlotinib -0.037 | [15] 0.028 | [3] -0.171 | [4] 0.015 | IRAK-1-4 Inhibitor I -0.175 | ibrutinib 0.019 | ralimetinib -0.168 | [9] 0.022 | [16] 0.026 | [10] 0.142 | [12] 0.039 | [13] 0.163

SSBP4 (UniProt U3KPY3)
inactive: [1] 0.178 | [2] 0.143 | [3] 0.181 | [5] -0.01 | ibrutinib -0.049 | [10] 0.259

SRRD (UniProt Q9UH36)
inactive: [4] 0.275 | IRAK-1-4 Inhibitor I 0.246 | ralimetinib -0.051 | [9] 0.078 | [11] 0.062 | [12] 0.05 | [13] -0.447

SRCIN1 (UniProt Q9C0H9)
inactive: erlotinib 0.193 | [15] 0.079 | [4] 0.002 | [6] 0.017 | [7] -0.059 | IRAK-1-4 Inhibitor I -0.039 | [8] -0.105 | ralimetinib 0.011 | [9] -0.172 | [16] -0.053 | [10] -0.074 | [13] 0.018 | [14] 0.007

STARD8 isoform 2 (UniProt Q92502)
inactive: [3] -0.189 | [4] -0.014 | [6] -0.022 | [7] 0.006 | IRAK-1-4 Inhibitor I -0.011 | ibrutinib -0.265 | ralimetinib 0.097 | [9] 0.106 | [11] -0.253 | [12] -0.045 | [13] 0.111

2 entries picked at random from those above, as already listed:
SQOR (UniProt Q9Y6N5)
inactive: erlotinib -0.014 | [15] -0.208 | [4] -0.036 | [6] -0.065 | [7] 0.075 | IRAK-1-4 Inhibitor I -0.017 | [8] -0.147 | ralimetinib 0.021 | [9] 0.018 | [16] 0.082 | [11] 0.017 | [12] -0.021 | [13] 0.058 | [14] 0.01

SRRD (UniProt Q9UH36)
inactive: [4] 0.275 | IRAK-1-4 Inhibitor I 0.246 | ralimetinib -0.051 | [9] 0.078 | [11] 0.062 | [12] 0.05 | [13] -0.447

Next records:

SPP2 (UniProt Q13103)
inactive: [3] -0.068 | ibrutinib 0.073 | [8] -0.104 | [14] 0.026

SSR2 (UniProt P43308)
inactive: [4] 0.06 | IRAK-1-4 Inhibitor I 0.05 | ralimetinib 0.037 | [9] -0.019 | [13] -0.052

SPINT1 (UniProt O43278)
inactive: erlotinib 0.007 | [15] -0.069 | [3] 0.061 | ibrutinib -0.012 | [8] 0.026 | [16] -0.05 | [10] 0.014 | [12] -0.054 | [14] -0.031
